Data taken from publication PMC9960274 (Molecules, 2023).

Test: general procedure: peptide synthesis; Fmoc-Pro-CTC resin 10
Settings: whole synthesis, scale 0.1 mmol
With “PEPTIDE1{[ac].[dD].[Dab(Acrylamide)].[Nle].[Nle].L.P.W.P}$$$$V2.0” the isolated mass was 8.6 mg and the isolated yield was 8% yield.
“PEPTIDE1{[ac].[dD].[Lys(Acrylamide)].[Nle].[Nle].L.P.W.P}$$$$V2.0” gave an isolated mass of 6.7 mg and an isolated yield of 6% yield.
In the case of “PEPTIDE1{[ac].[dD].[Orn(Acrylamide)].[Nle].[Nle].L.P.W.P}$$$$V2.0”, the isolated mass is reported as 5.0 mg and the isolated yield is reported as 5% yield.
For “Ac-D-Asp-Dap(Acrylamide)-Nle-Nle-Leu-Pro-Trp-Pro-OH”, the isolated mass was 10.0 mg and the isolated yield was 10% yield.

Test: general procedure: peptide synthesis; 2-chlorotrityl chloride (CTC) resin, 100-200 mesh, loaded with Fmoc-Pro
Settings: coupling step
For “RhB-Pro-6AH-D-Asp(OtBu)-Glu(MA)-Nle-Nle-Leu-Pro-Trp-Pro-OH”, the step yield was 15%.
In the case of “Ac-D-Asp(OtBu)-Asp(MA)-Nle-Nle-Leu-Pro-Trp-Pro-OH”, the step yield is reported as 16% yield.
With “Ac-D-Asp(OtBu)-Hmg(MA)-Nle-Nle-Leu-Pro-Trp-Pro-OH” the step yield was 33% yield.
Work on “Ac-D-Asp(OtBu)-Glu(MA)-Nle-Nle-Leu-Pro-Trp-Pro-OH” yielded a step yield of 10% yield.

Same assay, conditions: late stage modification step
In the case of “Ac-D-Asp-Glu(MA)-Nle-Nle-Leu-Pro-Trp-Pro-OH”, the step yield is reported as 17% yield.
“RhB-Pro-6AH-D-Asp-Glu(MA)-Nle-Nle-Leu-Pro-Trp-Pro-OH” showed a step yield of 28%.
“PEPTIDE1{[ac].[dD].[Hmg(MA)].[Nle].[Nle].L.P.W.P}$$$$V2.0” showed a step yield of 12% yield.
For “PEPTIDE1{[ac].[dD].[Asp(MA)].[Nle].[Nle].L.P.W.P}$$$$V2.0”, the step yield was 14% yield.

Strings that start with PEPTIDE1 are HELM notation: dots part the residues, brackets hold end groups and non-standard residues.
